Source: PMC7862700
Only a part is listed here, and it is no random draw. For some assays here: At the low end of the ranking the order means little. The list shows a part of the results. For some assays here: The source does not settle which construct or isoform was used.

Protein sequences, listed by entry. Tags and fused reporters are not part of them. Lines headed by an entry give the natural chain unless they say otherwise; changes in a name come on top.
UniProt Q00613: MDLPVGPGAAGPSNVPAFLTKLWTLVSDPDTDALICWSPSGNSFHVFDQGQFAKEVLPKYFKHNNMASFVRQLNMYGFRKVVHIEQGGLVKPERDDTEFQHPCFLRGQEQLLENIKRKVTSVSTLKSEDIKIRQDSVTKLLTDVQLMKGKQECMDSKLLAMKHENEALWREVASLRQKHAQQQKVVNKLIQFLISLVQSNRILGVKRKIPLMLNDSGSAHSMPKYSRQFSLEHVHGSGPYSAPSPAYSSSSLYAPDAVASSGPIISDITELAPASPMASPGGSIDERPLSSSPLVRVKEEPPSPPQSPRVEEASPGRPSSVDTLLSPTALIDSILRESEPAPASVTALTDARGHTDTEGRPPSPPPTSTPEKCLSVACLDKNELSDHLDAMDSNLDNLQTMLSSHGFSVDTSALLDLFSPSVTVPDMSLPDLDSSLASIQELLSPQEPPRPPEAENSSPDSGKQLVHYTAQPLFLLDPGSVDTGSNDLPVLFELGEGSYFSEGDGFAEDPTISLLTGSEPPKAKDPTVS

What was measured:
HSF1 = HSF1 (UniProt Q00613); experiment: DAPPL (digital affinity profiling via proximity ligation, sequencing); details: 10 mM Tris-HCl pH 7.5, 50 mM NaCl, 1 mM DTT, 4% glycerol, room temperature, 30 min; GST-TFs on glutathione beads, 16-mer random dsDNA library, 0.1% …; high values mean tight binding; double strand, one strand shown; scale: fold enrichment (6-mer frequency, TF over GST control)
ELF2 = biological target: T1, ELF2 (UniProt Q15723); experiment: as above; details: 10 mM Tris-HCl pH 7.5, 50 mM NaCl, 1 mM DTT, 4% glycerol, room temperature, 30 min; GST-TFs on glutathione beads, 16-mer random dsDNA library, 0.1% …; high values mean tight binding; double strand, one strand shown; scale: fold enrichment (6-mer frequency, TF over GST control)
T1 sequence: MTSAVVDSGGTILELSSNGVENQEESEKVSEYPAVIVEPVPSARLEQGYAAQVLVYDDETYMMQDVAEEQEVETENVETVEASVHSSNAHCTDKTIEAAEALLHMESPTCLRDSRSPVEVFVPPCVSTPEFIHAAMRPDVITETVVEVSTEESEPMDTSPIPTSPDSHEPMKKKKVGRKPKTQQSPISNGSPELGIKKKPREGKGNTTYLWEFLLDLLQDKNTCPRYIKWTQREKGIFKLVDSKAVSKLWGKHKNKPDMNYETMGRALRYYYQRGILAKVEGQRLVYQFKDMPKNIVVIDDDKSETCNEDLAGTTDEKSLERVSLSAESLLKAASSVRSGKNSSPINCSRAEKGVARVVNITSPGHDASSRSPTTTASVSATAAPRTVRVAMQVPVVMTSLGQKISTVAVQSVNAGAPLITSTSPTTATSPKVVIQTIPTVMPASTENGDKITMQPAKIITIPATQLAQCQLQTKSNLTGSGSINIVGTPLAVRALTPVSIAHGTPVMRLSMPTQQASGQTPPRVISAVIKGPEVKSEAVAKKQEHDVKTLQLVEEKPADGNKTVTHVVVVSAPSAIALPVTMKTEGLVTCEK

| Sequence | binding signal (HSF1) | binding signal (ELF2) |
| --- | --- | --- |
| CTAATT | 1.47 | 1.35 |
| TAGGTT | 1.18 | 1.11 |
| GTCTTC | 1.17 | 1.56 |
| GGCCTA | 1.33 | 1.16 |
| ACGTTA | 1.04 | 1.03 |
| TTAACA | 1.65 | 1.14 |
| TGTGAC | 0.799 | 1.08 |
| CGCTCA | 0.994 | 1.1 |
| TTGGGT | 0.948 | 0.97 |
| CTGGAT | 2.19 | 1.29 |
| CCGCCT | 1.08 | 1.67 |
| CTATCT | 1.4 | 1.29 |
| AAACGG | 0.871 | 1.24 |
| GTCCAC | 0.776 | 0.986 |
| TGCTAC | 1.03 | 1.25 |
| CAACAT | 0.908 | 1.14 |
| AACCAA | 1.08 | 1.25 |
| CGTATG | 0.855 | 1.03 |
| ATGAAT | 1.19 | 1.08 |
| ATGTGT | 0.815 | 1.09 |
| TTTAAA | 1.64 | 1.21 |
| AAGTGG | 0.927 | 1.21 |
| TGTTAA | 1.3 | 1.09 |
| CTTAGG | 1.29 | 1.12 |
| TATGGC | 1.2 | 1.16 |
| GCCAAT | 0.942 | 1.04 |
| ATATGG | 1.17 | 1.26 |

| Sequence | binding signal (HSF1) | binding signal (ELF2) |
| --- | --- | --- |
| ACACAC | 0.952 | 1.16 |
| AACTTC | 2.02 | 3.35 |
| TGAAAA | 1.14 | 1.03 |
| TGCTGA | 0.959 | 1.06 |
| GCTTTA | 1.25 | 1.07 |
| GACATC | 0.778 | 1.37 |
| TTGTGG | 1.37 | 1.35 |
| CACACT | 0.914 | 1.17 |
| AACCTC | 1.17 | 1.15 |
| CCCCGG | 0.87 | 1.56 |
| GCCGAC | 0.836 | 1.04 |
| TATTGT | 1.27 | 1.31 |
| CCTGGT | 1.08 | 1.53 |
| TCCTAT | 1.41 | 1.69 |
| TTGCAC | 1.1 | 1.2 |
| TGCCCG | 1.01 | 1.15 |
| TGCCAA | 0.979 | 1.02 |
| ATTATT | 1.8 | 1.21 |
| TTTCCT | 1.73 | 3.09 |
| ACCACT | 0.982 | 1.3 |
| CGCGAC | 0.992 | 1.05 |
| CTTCAT | 1.34 | 1.39 |
| GGGCTA | 0.989 | 1.06 |
| CCATGC | 0.87 | 1.02 |
| CGCGTC | 1.02 | 1.18 |
| TGCTGC | 0.971 | 1.11 |
| AGCTCC | 1.22 | 1.25 |

| Sequence | binding signal (HSF1) | binding signal (ELF2) |
| --- | --- | --- |
| TACCGC | 0.94 | 1.12 |
| ACTCTC | 1.55 | 1.31 |
| ATCTAG | 2.66 | 1.07 |
| GTCTAC | 0.838 | 1.07 |
| TAATAA | 1.76 | 1.2 |
| CTCAAC | 1.1 | 1.21 |
| GAAATC | 1.23 | 1.7 |
| GGAAGC | 0.794 | 2.32 |
| TGACCT | 1.5 | 1.65 |
| TTGGCC | 0.987 | 1.02 |
| CGACGT | 1 | 1 |
| CTGGGT | 1.04 | 1.04 |
| ACGCTG | 0.905 | 1.09 |
| ATGTCC | 1.03 | 1.81 |
| GGCTCC | 1.13 | 1.28 |
| TTTGAG | 1.1 | 1.03 |
| TACGAT | 1.13 | 1.06 |
| TGCTAA | 1.32 | 1.22 |
| CCCTCG | 1.22 | 1.13 |
| AGAAGC | 1.96 | 1.12 |
| ATTGCC |  | 1.26 |
| ATGTCA | 0.929 | 1.09 |
| CGGATA | 0.757 | 1.56 |
| ACTTAT |  | 1.34 |
| ATGTCT |  | 1.21 |

Part of the list above, with each value named.
ACTCTC
  binding signal (HSF1): 1.55; binding signal (ELF2): 1.31
ATCTAG
  binding signal (HSF1): 2.66; binding signal (ELF2): 1.07
GTCTAC
  binding signal (HSF1): 0.838; binding signal (ELF2): 1.07
TAATAA
  binding signal (HSF1): 1.76; binding signal (ELF2): 1.2
